Laboratory results from the supplement of paper PMC7661543.
Differences between knockout arms are mostly noise.

Test system: SKBR3
Experiment: relative cell number vs DMSO control (72 h) (% of DMSO); higher = less growth inhibition (more cells)
Protocol: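 QMAP-Seq: a pool of 5 breast cancer cell lines (ZR-75-1, SKBR3, HCC-38, MDA-MB-231, BT-20), each carrying 12 doxycycline-inducible Cas9 sgRNA perturbations (11 knockouts plus non-targeting sgNT), was treated with compounds for 72 h at four 10-fold doses (10 nM-10 uM or 1 nM-1 uM range). Barcodes were amplified and sequenced, and cell number was interpolated from 293T spike-in standard curves. The result is expressed as % of the median of DMSO wells. Two biological replicates.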

CC(=O)Nc1nc(C)c(-c2ccc(Cl)c(S(=O)(=O)NCCO)c2)s1 [PIK93]
Settings | relative cell number
sgRNA knockout: sgATF3, 10 nM | 116
sgRNA knockout: sgATF3, 100 nM | 109
sgRNA knockout: sgATF3, 1000 nM | 99.42
sgRNA knockout: sgATF3, 10000 nM | 45.1
sgRNA knockout: sgATF4, 10 nM | 116
sgRNA knockout: sgATF4, 100 nM | 101
sgRNA knockout: sgATF4, 1000 nM | 85.3
sgRNA knockout: sgATF4, 10000 nM | 46.7
sgRNA knockout: sgATF6, 10 nM | 102
sgRNA knockout: sgATF6, 100 nM | 96
sgRNA knockout: sgATF6, 1000 nM | 70.2
sgRNA knockout: sgATF6, 10000 nM | 47.9
sgRNA knockout: sgATG7, 10 nM | 115.7
sgRNA knockout: sgATG7, 100 nM | 84.3
sgRNA knockout: sgATG7, 1000 nM | 94.6
sgRNA knockout: sgATG7, 10000 nM | 55.9
sgRNA knockout: sgERN1, 10 nM | 135
sgRNA knockout: sgERN1, 100 nM | 122
sgRNA knockout: sgERN1, 1000 nM | 83.5
sgRNA knockout: sgERN1, 10000 nM | 51.67
sgRNA knockout: sgHSF1, 10 nM | 121
sgRNA knockout: sgHSF1, 100 nM | 95.8
sgRNA knockout: sgHSF1, 1000 nM | 91.5
sgRNA knockout: sgHSF1, 10000 nM | 43.7
sgRNA knockout: sgHSF2, 10 nM | 107
sgRNA knockout: sgHSF2, 100 nM | 91.9
sgRNA knockout: sgHSF2, 1000 nM | 84.82
sgRNA knockout: sgHSF2, 10000 nM | 53.8
sgRNA knockout: sgKEAP1, 10 nM | 106
sgRNA knockout: sgKEAP1, 100 nM | 104
sgRNA knockout: sgKEAP1, 1000 nM | 73
sgRNA knockout: sgKEAP1, 10000 nM | 42.74
sgRNA knockout: sgNFE2L2, 10 nM | 105
sgRNA knockout: sgNFE2L2, 100 nM | 85.7
sgRNA knockout: sgNFE2L2, 1000 nM | 72.7
sgRNA knockout: sgNFE2L2, 10000 nM | 45
sgRNA knockout: sgSLC35F2, 10 nM | 110
sgRNA knockout: sgSLC35F2, 100 nM | 109
sgRNA knockout: sgSLC35F2, 1000 nM | 68.2
sgRNA knockout: sgSLC35F2, 10000 nM | 57.6
sgRNA knockout: sgXBP1, 10 nM | 83.9
sgRNA knockout: sgXBP1, 100 nM | 96.7
sgRNA knockout: sgXBP1, 1000 nM | 66.8
sgRNA knockout: sgXBP1, 10000 nM | 50.5

CCC(C)SSc1ncc[nH]1 (configuration not stated) [PX12]
Settings | relative cell number
sgRNA knockout: sgATF3, 10 nM | 111
sgRNA knockout: sgATF3, 100 nM | 111
sgRNA knockout: sgATF3, 1000 nM | 108
sgRNA knockout: sgATF3, 10000 nM | 53.2
sgRNA knockout: sgATF4, 10 nM | 106
sgRNA knockout: sgATF4, 100 nM | 114
sgRNA knockout: sgATF4, 1000 nM | 84
sgRNA knockout: sgATF4, 10000 nM | 52.4
sgRNA knockout: sgATF6, 10 nM | 110
sgRNA knockout: sgATF6, 100 nM | 103.6
sgRNA knockout: sgATF6, 1000 nM | 91.9
sgRNA knockout: sgATF6, 10000 nM | 46.6
sgRNA knockout: sgATG7, 10 nM | 99.4
sgRNA knockout: sgATG7, 100 nM | 130
sgRNA knockout: sgATG7, 1000 nM | 108
sgRNA knockout: sgATG7, 10000 nM | 55.6
sgRNA knockout: sgERN1, 10 nM | 86.4
sgRNA knockout: sgERN1, 100 nM | 96
sgRNA knockout: sgERN1, 1000 nM | 90.02
sgRNA knockout: sgERN1, 10000 nM | 57.4
sgRNA knockout: sgHSF1, 10 nM | 101
sgRNA knockout: sgHSF1, 100 nM | 91.3
sgRNA knockout: sgHSF1, 1000 nM | 88.8
sgRNA knockout: sgHSF1, 10000 nM | 49.1
sgRNA knockout: sgHSF2, 10 nM | 107
sgRNA knockout: sgHSF2, 100 nM | 109
sgRNA knockout: sgHSF2, 1000 nM | 92.7
sgRNA knockout: sgHSF2, 10000 nM | 45.9
sgRNA knockout: sgKEAP1, 10 nM | 104
sgRNA knockout: sgKEAP1, 100 nM | 102
sgRNA knockout: sgKEAP1, 1000 nM | 83.3
sgRNA knockout: sgKEAP1, 10000 nM | 53.2
sgRNA knockout: sgNFE2L2, 10 nM | 98.9
sgRNA knockout: sgNFE2L2, 100 nM | 86
sgRNA knockout: sgNFE2L2, 1000 nM | 92.8
sgRNA knockout: sgNFE2L2, 10000 nM | 50.1
sgRNA knockout: sgSLC35F2, 10 nM | 106
sgRNA knockout: sgSLC35F2, 100 nM | 125
sgRNA knockout: sgSLC35F2, 1000 nM | 101
sgRNA knockout: sgSLC35F2, 10000 nM | 43.6
sgRNA knockout: sgXBP1, 10 nM | 103
sgRNA knockout: sgXBP1, 100 nM | 113
sgRNA knockout: sgXBP1, 1000 nM | 96.8
sgRNA knockout: sgXBP1, 10000 nM | 46.6

Cc1ccc(Nc2nccc(N(C)c3ccc4c(C)n(C)nc4c3)n2)cc1S(N)(=O)=O [Pazopanib]
Settings | relative cell number
sgRNA knockout: sgATF3, 10 nM | 85.4
sgRNA knockout: sgATF3, 100 nM | 71.8
sgRNA knockout: sgATF3, 1000 nM | 108
sgRNA knockout: sgATF3, 10000 nM | 45
sgRNA knockout: sgATF4, 10 nM | 99.8
sgRNA knockout: sgATF4, 100 nM | 83.6
sgRNA knockout: sgATF4, 1000 nM | 93.61
sgRNA knockout: sgATF4, 10000 nM | 62.3
sgRNA knockout: sgATF6, 10 nM | 102
sgRNA knockout: sgATF6, 100 nM | 88.3
sgRNA knockout: sgATF6, 1000 nM | 87.1
sgRNA knockout: sgATF6, 10000 nM | 70.5
sgRNA knockout: sgATG7, 10 nM | 119
sgRNA knockout: sgATG7, 100 nM | 94.9
sgRNA knockout: sgATG7, 1000 nM | 83.9
sgRNA knockout: sgATG7, 10000 nM | 64.1
sgRNA knockout: sgERN1, 10 nM | 104.7
sgRNA knockout: sgERN1, 100 nM | 83.8
sgRNA knockout: sgERN1, 1000 nM | 101
sgRNA knockout: sgERN1, 10000 nM | 70.5
sgRNA knockout: sgHSF1, 10 nM | 91.09
sgRNA knockout: sgHSF1, 100 nM | 71.6
sgRNA knockout: sgHSF1, 1000 nM | 87.6
sgRNA knockout: sgHSF1, 10000 nM | 64.3
sgRNA knockout: sgHSF2, 10 nM | 85.6
sgRNA knockout: sgHSF2, 100 nM | 95.2
sgRNA knockout: sgHSF2, 1000 nM | 111
sgRNA knockout: sgHSF2, 10000 nM | 67.3
sgRNA knockout: sgKEAP1, 10 nM | 96.5
sgRNA knockout: sgKEAP1, 100 nM | 93.1
sgRNA knockout: sgKEAP1, 1000 nM | 91.62
sgRNA knockout: sgKEAP1, 10000 nM | 59.7
sgRNA knockout: sgNFE2L2, 10 nM | 89.6
sgRNA knockout: sgNFE2L2, 100 nM | 90.1
sgRNA knockout: sgNFE2L2, 1000 nM | 87.4
sgRNA knockout: sgNFE2L2, 10000 nM | 62.2
sgRNA knockout: sgSLC35F2, 10 nM | 91.57
sgRNA knockout: sgSLC35F2, 100 nM | 63.5
sgRNA knockout: sgSLC35F2, 1000 nM | 114
sgRNA knockout: sgSLC35F2, 10000 nM | 53.7
sgRNA knockout: sgXBP1, 10 nM | 83.6
sgRNA knockout: sgXBP1, 100 nM | 85.7
sgRNA knockout: sgXBP1, 1000 nM | 92.8
sgRNA knockout: sgXBP1, 10000 nM | 55.8
